This experiment has as its target tyrosine kinase c-Met receptor (mouse) (mouse (endogenous in mFGOs)) (UniProt P16056). The experiment is described as follows: co-IP; lysates (M-PER) of mFGOs infected with H. pylori G27 for 24 h; anti-c-Met antibody 1:50 overnight at 4 C, Protein A/G Plus agarose; Western blot for TyrP, c-Met, CagA, CD44 and HGF. (In general: In western blotting, separated proteins are transferred to a membrane and probed.)

By UniProt entry, the sequences of proteins in these tests, tags left out. Residues count along the entry.
UniProt P16056, residues 25-1379: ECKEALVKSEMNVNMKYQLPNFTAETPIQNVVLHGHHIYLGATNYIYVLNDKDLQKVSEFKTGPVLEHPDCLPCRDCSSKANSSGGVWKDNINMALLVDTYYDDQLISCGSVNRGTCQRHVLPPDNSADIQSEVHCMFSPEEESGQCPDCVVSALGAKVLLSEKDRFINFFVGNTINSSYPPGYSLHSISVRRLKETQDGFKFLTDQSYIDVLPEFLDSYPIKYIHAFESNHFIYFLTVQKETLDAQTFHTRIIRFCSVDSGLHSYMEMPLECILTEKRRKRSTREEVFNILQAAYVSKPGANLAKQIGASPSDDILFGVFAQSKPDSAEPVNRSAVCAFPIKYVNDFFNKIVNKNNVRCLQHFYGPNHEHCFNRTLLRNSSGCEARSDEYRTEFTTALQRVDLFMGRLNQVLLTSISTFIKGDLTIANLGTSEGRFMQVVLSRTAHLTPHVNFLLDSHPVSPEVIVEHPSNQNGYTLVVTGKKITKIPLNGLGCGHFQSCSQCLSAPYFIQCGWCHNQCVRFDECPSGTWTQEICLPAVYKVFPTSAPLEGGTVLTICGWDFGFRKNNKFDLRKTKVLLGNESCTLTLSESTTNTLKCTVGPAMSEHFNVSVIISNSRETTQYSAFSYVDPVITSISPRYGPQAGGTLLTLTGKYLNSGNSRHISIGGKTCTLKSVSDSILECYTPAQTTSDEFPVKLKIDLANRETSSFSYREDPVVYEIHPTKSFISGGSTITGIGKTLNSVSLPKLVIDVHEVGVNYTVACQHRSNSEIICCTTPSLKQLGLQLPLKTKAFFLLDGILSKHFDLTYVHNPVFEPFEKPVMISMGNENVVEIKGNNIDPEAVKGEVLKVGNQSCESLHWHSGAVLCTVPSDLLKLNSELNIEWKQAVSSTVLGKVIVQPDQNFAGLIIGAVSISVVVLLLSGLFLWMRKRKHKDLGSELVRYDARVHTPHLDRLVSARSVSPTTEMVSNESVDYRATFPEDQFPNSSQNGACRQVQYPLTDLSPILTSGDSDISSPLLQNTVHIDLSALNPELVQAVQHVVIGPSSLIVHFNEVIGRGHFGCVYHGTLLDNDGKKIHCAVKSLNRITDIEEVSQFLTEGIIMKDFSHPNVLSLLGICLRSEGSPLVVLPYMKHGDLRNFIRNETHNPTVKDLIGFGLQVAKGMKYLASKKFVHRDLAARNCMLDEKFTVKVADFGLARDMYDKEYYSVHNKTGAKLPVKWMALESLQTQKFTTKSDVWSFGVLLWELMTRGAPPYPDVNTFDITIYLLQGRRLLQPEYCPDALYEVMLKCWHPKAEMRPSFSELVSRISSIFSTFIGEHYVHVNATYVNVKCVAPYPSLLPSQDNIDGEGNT

Results are given in words; binding and its absence hold for the method and conditions named. Binding seen in cells or lysates may run through a third protein. Some entries that bind do so weakly or less than the wild type.

B1: CD44 (mouse) (receptor, UniProt P15379 23-778)
chain: QIDLNVTCRYAGVFHVEKNGRYSISRTEAADLCQAFNSTLPTMDQMKLALSKGFETCRYGFIEGNVVIPRIHPNAICAANHTGVYILVTSNTSHYDTYCFNASAPPEEDCTSVTDLPNSFDGPVTITIVNRDGTRYSKKGEYRTHQEDIDASNIIDDDVSSGSTIEKSTPEGYILHTYLPTEQPTGDQDDSFFIRSTLATIASTVHSKSHAAAQKQNNWIWSWFGNSQSTTQTQEPTTSATTALMTTPETPPKRQEAQNWFSWLFQPSESKSHLHTTTKMPGTESNTNPTGWEPNEENEDETDTYPSFSGSGIDDDEDFISSTIATTPRVSARTEDNQDWTQWKPNHSNPEVLLQTTTRMADIDRISTSAHGENWTPEPQPPFNNHEYQDEEETPHATSTTPNSTAEAAATQQETWFQNGWQGKNPPTPSEDSHVTEGTTASAHNNHPSQRITTQSQEDVSWTDFFDPISHPMGQGHQTESKDTDSSHSTTLQPTAAPNTHLVEDLNRTGPLSVTTPQSHSQNFSTLHGEPEEDENYPTTSILPSSTKSSAKDARRGGSLPTDTTTSVEGYTFQYPDTMENGTLFPVTPAKTEVFGETEVTLATDSNVNVDGSLPGDRDSSKDSRGSSRTVTHGSELAGHSSANQDSGVTTTSGPMRRPQIPEWLIILASLLALALILAVCIAVNSRRRCGQKKKLVINGGNGTVEDRKPSELNGEASKSQEMVHLVNKEPSETPDQCMTADETRNLQSVDMKIGV
Take B1: the binding result was “binds”.
